Source: PubChem BioAssay AID1053208 (Peter MacCallum Cancer Centre, 2014)
The whole screen tested about 17,000 reagents; shown is a random part of them. 788 of them (4.7%) were called active. 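Calls rest on z-score classes alone; an extra cut-off of viability at most 70% of control was not applied to them.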 Reagents against one gene are numbered here. Not all columns of the deposit are shown.

Assay: 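Find knock-downs that sensitise mouse osteosarcoma cells to doxorubicin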 (primary screen)
System: mouse osteosarcoma cells, early-passage culture from an engineered mouse model of fibroblastic bone tumour
Reagent: siRNA pool against mouse genes, 40 nM
Duration: about 120 h (48 h before drug, then 72 h with drug)
Challenge: doxorubicin 100 nM for 72 h, roughly 30-40% inhibitory dose
Read-out: 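Luminescent ATP signal taken as viability with or without 100 nM doxorubicin for 72 h; mean of two wells set against non-targeting siRNA and turned into robust z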
Reading the numbers: viability z-score with doxorubicin: higher = more viable cells under doxorubicin; viability z-score without drug: higher = more viable cells with knock-down alone
Active means: 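a pool counts as active when its viability z-score with doxorubicin is -2 or below and its z-score without drug lies between -2 and 2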

The opening 3 records as a preview:
Dlx4 — combined z-score class = no change with or without drug; viability z-score with doxorubicin = -1.12; viability z-score without drug = -1.52; call = inactive
Memo1 — combined z-score class = no change with or without drug; viability z-score with doxorubicin = -0.45; viability z-score without drug = -0.84; call = inactive
Vmn1r72 — combined z-score class = no change with or without drug; viability z-score with doxorubicin = 1.69; viability z-score without drug = 0.67; call = inactive

Main list, repeating the preview:
Dlx4 — combined z-score class = no change with or without drug; viability z-score with doxorubicin = -1.12; viability z-score without drug = -1.52; call = inactive
Memo1 — combined z-score class = no change with or without drug; viability z-score with doxorubicin = -0.45; viability z-score without drug = -0.84; call = inactive
Vmn1r72 — combined z-score class = no change with or without drug; viability z-score with doxorubicin = 1.69; viability z-score without drug = 0.67; call = inactive
Tsks — combined z-score class = no change with or without drug; viability z-score with doxorubicin = 0.9; viability z-score without drug = -1.85; call = inactive
Scgb3a1 — combined z-score class = no change with or without drug; viability z-score with doxorubicin = -1.35; viability z-score without drug = -0.51; call = inactive
H2-M10.1 — combined z-score class = no change with or without drug; viability z-score with doxorubicin = 0.22; viability z-score without drug = -1.35; call = inactive
Zfy1 — combined z-score class = high cell count with doxorubicin only; viability z-score with doxorubicin = 3.15; viability z-score without drug = 1.85; call = inactive
Kdm5b — combined z-score class = no change with or without drug; viability z-score with doxorubicin = -0.45; viability z-score without drug = -0.17; call = inactive
Htr3b — combined z-score class = no change with or without drug; viability z-score with doxorubicin = 0.56; viability z-score without drug = -1.85; call = inactive
Drosha — combined z-score class = no change with or without drug; viability z-score with doxorubicin = 0.34; viability z-score without drug = 1.18; call = inactive
Tsga13 — combined z-score class = no change with or without drug; viability z-score with doxorubicin = -0.22; viability z-score without drug = 0; call = inactive
Rnf181 — combined z-score class = high cell count without drug only; viability z-score with doxorubicin = 1.46; viability z-score without drug = 2.53; call = inactive
Rhd — combined z-score class = no change with or without drug; viability z-score with doxorubicin = -0.22; viability z-score without drug = 0.34; call = inactive
Heatr3 — combined z-score class = no change with or without drug; viability z-score with doxorubicin = -1.35; viability z-score without drug = -0.17; call = inactive
Cops8 — combined z-score class = no change with or without drug; viability z-score with doxorubicin = -0.9; viability z-score without drug = 0.84; call = inactive
Or5b24 — combined z-score class = no change with or without drug; viability z-score with doxorubicin = -0.45; viability z-score without drug = 0; call = inactive
Cnot2 — combined z-score class = no change with or without drug; viability z-score with doxorubicin = -0.45; viability z-score without drug = -1.52; call = inactive
Atp10b — combined z-score class = no change with or without drug; viability z-score with doxorubicin = 0.56; viability z-score without drug = 1.18; call = inactive
Sult2a8 — combined z-score class = no change with or without drug; viability z-score with doxorubicin = 0.45; viability z-score without drug = -0.17; call = inactive
Or51h5 — combined z-score class = no change with or without drug; viability z-score with doxorubicin = 0.22; viability z-score without drug = -0.17; call = inactive
Osbpl1a #1 — combined z-score class = no change with or without drug; viability z-score with doxorubicin = 1.57; viability z-score without drug = 0.84; call = inactive
Osbpl1a #2 — combined z-score class = high cell count without drug only; viability z-score with doxorubicin = 0.56; viability z-score without drug = 2.19; call = inactive
Iqcj — combined z-score class = no change with or without drug; viability z-score with doxorubicin = -1.57; viability z-score without drug = -0.17; call = inactive
Pcdhb15 — combined z-score class = low cell count with doxorubicin only; viability z-score with doxorubicin = -2.02; viability z-score without drug = -1.35; call = active
Rbm45 — combined z-score class = no change with or without drug; viability z-score with doxorubicin = 0; viability z-score without drug = 0.51; call = inactive
Emc9 — combined z-score class = low cell count with doxorubicin only; viability z-score with doxorubicin = -2.59; viability z-score without drug = 0.84; call = active
Gdf1 — combined z-score class = no change with or without drug; viability z-score with doxorubicin = 1.12; viability z-score without drug = 0.17; call = inactive
Vmn1r177 — combined z-score class = no change with or without drug; viability z-score with doxorubicin = -0.9; viability z-score without drug = -0.84; call = inactive
Tacc2 — combined z-score class = no change with or without drug; viability z-score with doxorubicin = 0.22; viability z-score without drug = -0.17; call = inactive
Hbq1a — combined z-score class = no change with or without drug; viability z-score with doxorubicin = 0.79; viability z-score without drug = -0.51; call = inactive
Dnajb8 — combined z-score class = no change with or without drug; viability z-score with doxorubicin = 0; viability z-score without drug = 0.84; call = inactive
Papss1 — combined z-score class = no change with or without drug; viability z-score with doxorubicin = 0.45; viability z-score without drug = 0.17; call = inactive
Dph7 — combined z-score class = no change with or without drug; viability z-score with doxorubicin = -0.9; viability z-score without drug = 0; call = inactive
Or8k3 — combined z-score class = low cell count without drug only; viability z-score with doxorubicin = -1.24; viability z-score without drug = -2.53; call = inactive
Apoo — combined z-score class = no change with or without drug; viability z-score with doxorubicin = -0.22; viability z-score without drug = 0; call = inactive
Swap70 — combined z-score class = no change with or without drug; viability z-score with doxorubicin = -1.8; viability z-score without drug = -1.35; call = inactive
